Assay results as given in paper PMC12501282.
No constants are given. Whether binding was seen depends on the method and setting. In cells and extracts the contact can be indirect. Some entries that bind do so weakly or less than the wild type.

Target: T1, STAT1 (mouse (endogenous in primary cardiac fibroblasts)) (UniProt P42225)
T1 sequence: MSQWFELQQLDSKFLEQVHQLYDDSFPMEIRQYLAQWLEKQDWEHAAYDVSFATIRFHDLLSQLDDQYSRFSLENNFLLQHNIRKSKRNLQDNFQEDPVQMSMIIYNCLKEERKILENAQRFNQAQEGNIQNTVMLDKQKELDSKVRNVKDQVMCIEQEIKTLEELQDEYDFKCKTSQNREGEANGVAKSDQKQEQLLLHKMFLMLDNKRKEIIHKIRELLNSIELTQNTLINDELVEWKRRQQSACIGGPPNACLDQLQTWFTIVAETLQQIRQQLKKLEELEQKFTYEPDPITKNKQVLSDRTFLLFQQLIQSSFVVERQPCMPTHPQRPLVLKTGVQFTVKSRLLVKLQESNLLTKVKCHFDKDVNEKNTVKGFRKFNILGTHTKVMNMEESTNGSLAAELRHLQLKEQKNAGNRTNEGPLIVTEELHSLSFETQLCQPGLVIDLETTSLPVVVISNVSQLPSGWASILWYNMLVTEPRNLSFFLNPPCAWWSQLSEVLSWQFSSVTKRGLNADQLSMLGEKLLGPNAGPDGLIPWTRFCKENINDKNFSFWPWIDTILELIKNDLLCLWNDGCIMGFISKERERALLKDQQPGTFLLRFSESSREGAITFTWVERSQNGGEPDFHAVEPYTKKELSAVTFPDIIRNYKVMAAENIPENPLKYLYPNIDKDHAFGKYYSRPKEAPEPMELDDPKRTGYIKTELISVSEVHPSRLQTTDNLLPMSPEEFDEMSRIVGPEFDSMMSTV
Experiment: co-IP; primary cardiac fibroblasts isolated from WT and CARMA3 KO mice heart, TGF-β1 stimulation; which protein was precipitated is not told

B1: Caspase recruitment domain and membrane-associated guanylate kinase-like protein 3 (CARMA3) (protein, UniProt P58660 1-1021)
chain: MQGRADAGEADEEAGAGSGSEAEEDALWERIEGVRHRLTRALNPAKLTPYLRQCRVLDEQDEEEVLSTYRFPCRANRTGRLIDILRCRGKRGFEAFLEALEFYYPEHFTLLTGQEPAQRCSMILDEEGPEGLTQFLMTEVRRLREARKSQLHREQQLQARGRALEEERAGLEQRLREQQQAQERCQRLREDWEAGSLELLRLKDENYMIAMRLAQLSEEKNSAVLRSRDLQLAVDQLKLKVSRLEEECALLRRARGPPPGAEEKEREPDGADLLSELRAENQRLTASLQELQEGLQQEMSRPGAAGSERILLDILEHDWREAQDSRQELCQKLHAVQGELQWAEELRDKYLQEMEDLRLKHRTLLKDCDLYKHRMATVLAQLEEIEKERDQAIQSRDRIQLQYSQSLIEKDQYRKQVRGLEAERDELLTTVTSLEGTKAMLEAQLQRTQGGSCLKACASSHSLCSNLSSTWSLSEFPSPLGGPEATGEAGGSEPHTSEEATDSEKEINRLSILPFPPSAGSILRRQREEDPEPPKRSFSSMSDITGSVTLKPWSPGLSSSSSSDSVWPLGKPEGLLARGCGLDFLNRSLAIRVSGWSPPAGLDPQDKSPDSMPGLGDRWSGAVVRRVLSGPGSARTEQKEPRAEGTGLEGAGLEAEAQQRTLPWNQSSTLPFLLDSKACHSFHEALDAWAKGPGAEPFYIRANFSLPERSDPHALCVKAQEILRLVDPAHKRRQEWFCTRVDTLTLRDLDRGTVPNYQRAQQLLEVQEKYLISSRHRSPRSNLKKRALGLVRPKPAGGTAGDSAEQLPAEPCSELERSLKPYSLVRPLLVSALRPVVLLPECLAPRLIRNLLDLPSSRLDFQVCPAESLSGEEQCTSSAPGAPKAWPATAGLGSRIRAIQESVGKKHCLLELGARGVRELVHSEVYPIVIHVEVTEKNVREIRGLLGRPGWRDSELLRQCRGSEQWLWGLPCSWVQVPAHAWGHAEELAKVVRGRILQEQARLVWVERGSSRGGSGSSSEA
B1 was tested, and the binding was “binds”.
